This test addresses McrA (mitomycin C resistance protein) from Streptomyces lavendulae (Streptomyces lavendulae) (UniProt P43485). Nature of the test: SEC.

Results are given in words; binding and its absence hold for the method and conditions named. Sequences can lack the tags named with a protein.

B1: McrA (mitomycin C resistance protein) from Streptomyces lavendulae (enzyme, UniProt P43485 1-448)
chain: MSTQWGWALEPDQPGYDDARLGLNRAAESRPAYVVEAADEQEVAAAVRLAAEQKRPVGVMATGHGPSVSADDAVLVNTRRMEGVSVDAARATAWIEAGARWRKVLEHTAPHGLAPLNGSSPNVGAVGYLVGGGAGLLGRRFGYAADHVRRLRLVTADGRLRDVTAGTDPDLFWAVRGGKDNFGLVVGMEVDLFPVTRLYGGGLYFAGEATAEVLHAYAEWVRHVPEEMASSVLLVHNPDLPDVPEPLRGRFITHLRIAYSGEPADGEHLVRPLRELGPILLDTVRDMPYAEVGTIHHEPTSMPYVAYDRNVLLSDLTDDAVDIIVALAGPDAGAPFVTELRHFGGAYARPPKVPNCVGGRDAAFSLFTGAVPEAEGLRRRDDLLDRLRPWSTGGTNLNFAGVEDISPASVEAAYTPADFARLRAVKAQYDPDNMFRVNFNIPPAESWT
modifications: FAD covalently bound to His64
As to B1, the binding entry is “no binding”.

These data come from publication doi:10.1101/2025.11.28.691146.
